Measurements published in US20120328692A1, “POTENT D-PEPTIDE ANTAGONISTS OF MDM2 AND MDMX FOR ANTICANCER THERAPY” (UNIVERSITY OF MARYLAND, BALTIMORE, priority 2011, published 2012).
At least one read-out could not be matched to a standard name with certainty.

Tested on: cell membrane
Assay: cell membrane permeability
Assay type: cell-based
Conditions: free peptide

`CC(C)C[C@@H](NC(=O)[C@@H](CC(C)C)NC(=O)[C@@H](CCCCN)NC(=O)[C@@H](CCC(=O)O)NC(=O)[C@@H](Cc1ccc(C(F)(F)F)cc1)NC(=O)[C@@H](CC(N)=O)NC(=O)[C@@H](C)NC(=O)[C@@H](Cc1ccc(O)cc1)NC(=O)[C@@H](Cc1c[nH]c2cc(F)ccc12)NC(=O)[C@@H](C)NC(=O)[C@H](N)[C@H](C)O)C(=O)N[C@H](CCCNC(=N)N)C(=O)O` [^DPMI-δ, TA(6-F)WYAN(4-CF3)FEKLLR] was tested, and the “ability to permeabilize the cell membrane” value was “incapable of permeabilizing the cell membrane”.
